Earlier results as cited in article PMC4620497 (Scientific Reports, 2015).

test system: kinases screened; design: method as in ref 18; Karaman MW, et al. 2008; conditions: number of target hits/number of kinases screened; Karaman MW, et al. 2008; cited from earlier work

| SMILES | S(100nM) | S(3μM) |
| --- | --- | --- |
| CC(C)(C)c1cc(NC(=O)Nc2ccc(-c3cn4c(n3)sc3cc(OCCN5CCOCC5)ccc34)cc2)no1 [AC220, reference compound] | 0.028 | 0.067 |
| C[C@]12O[C@H](C[C@]1(O)CO)n1c3ccccc3c3c4c(c5c6ccccc6n2c5c31)CNC4=O [CEP-701] | 0.46 | 0.81 |
| Cc1nc(Nc2ncc(C(=O)Nc3c(C)cccc3Cl)s2)cc(N2CCN(CCO)CC2)n1 [Dasatinib] | 0.159 | 0.283 |
| C#Cc1cccc(Nc2ncnc3cc(OCCOC)c(OCCOC)cc23)c1 [Erlotinib] | 0.014 | 0.152 |
| COc1cc2ncnc(Nc3ccc(F)c(Cl)c3)c2cc1OCCCN1CCOCC1 [Gefitinib] | 0.007 | 0.072 |
| Cc1ccc(NC(=O)c2ccc(CN3CCN(C)CC3)cc2)cc1Nc1nccc(-c2cccnc2)n1 [Imatinib] | 0.031 | 0.066 |
| CS(=O)(=O)CCNCc1ccc(-c2ccc3ncnc(Nc4ccc(OCc5cccc(F)c5)c(Cl)c4)c3c2)o1 [Lapatinib] | 0.010 | 0.010 |
| COc1cc2c(N3CCN(C(=O)Nc4ccc(OC(C)C)cc4)CC3)ncnc2cc1OCCCN1CCCCC1 [MLN-518] | 0.014 | 0.056 |
| CNC(=O)c1cc(Oc2ccc(NC(=O)Nc3ccc(Cl)c(C(F)(F)F)c3)cc2)ccn1 [Sorafenib] | 0.045 | 0.18 |
| CCN(CC)CCNC(=O)c1c(C)[nH]c(/C=C2\C(=O)Nc3ccc(F)cc32)c1C [Sunitinib] | 0.19 | – |
